At least one structure is not confirmed: it was looked up by name or label, or the drawing left a doubt.
Test system: GIP gene
Assay: RT-PCR: effects of various compounds in artificial diet on GIP expression
Type: in vivo, cotton bollworm
Settings: 5-day old larvae, 0.1% compound in artificial diet, one day, RT-PCR (FIG. 3B)

Cc1cc2c(C(C)C)c(O)c(O)c(C=O)c2c(O)c1-c1c(C)cc2c(C(C)C)c(O)c(O)c(C=O)c2c1O [gossypol]
GIP expression in mesenteron: specifically induced

— US8895805B2, “Method for modifying insect resistance of plants by utilizing RNAi technique” (Shanghai Institutes for Biological Sciences, Chinese …, priority 2006, dated 2014)
